Results as given in paper PMC4837325, “Arabidopsis HIGH PLOIDY2 Sumoylates and Stabilizes Flowering Locus C through Its E3 Ligase Activity” (Frontiers in Plant Science, 2016).
No constants are given. Whether binding was seen depends on the method and setting. Binding seen in cells or lysates may run through a third protein. Some binding calls cover weakened binding; strength is not graded here. Where a sequence is shown, tags or fusion partners need not be part of it.

Amino acid sequences for entries named in this document (tags omitted).
UniProt Q9S7Q7: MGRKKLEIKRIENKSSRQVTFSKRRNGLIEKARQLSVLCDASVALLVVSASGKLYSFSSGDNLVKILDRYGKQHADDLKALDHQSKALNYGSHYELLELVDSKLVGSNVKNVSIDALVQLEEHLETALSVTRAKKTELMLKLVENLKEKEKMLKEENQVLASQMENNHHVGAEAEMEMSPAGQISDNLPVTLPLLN

Target: T1, HPY2-FLAG3 (Arabidopsis thaliana) (UniProt Q8GYH7)
T1 sequence: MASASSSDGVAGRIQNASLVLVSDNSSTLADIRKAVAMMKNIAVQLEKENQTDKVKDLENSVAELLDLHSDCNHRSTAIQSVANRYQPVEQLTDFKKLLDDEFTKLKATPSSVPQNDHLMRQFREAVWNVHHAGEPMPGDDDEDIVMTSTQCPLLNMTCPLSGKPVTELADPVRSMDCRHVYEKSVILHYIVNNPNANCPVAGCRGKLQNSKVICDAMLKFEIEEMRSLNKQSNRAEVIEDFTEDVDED
Assay: co-IP; Arabidopsis leaves co-infiltrated with 35S-Myc6-FLC and 35S-HPY2-FLAG3; total protein immunoprecipitated with anti-FLAG antibody in 50 mM Tris-Cl pH 8.0, 150 mM NaCl, 10% glycerol, 1% NP-40, 2 mM EDTA; FLC detected with anti-Myc antibody

binding: binds
Substance: Myc6-FLC (from UniProt Q9S7Q7 1-196)
